From US20110143197A1, “ELECTRODE ACTIVE MATERIAL FOR POWER STORAGE DEVICE AND POWER STORAGE DEVICE, AND ELECTRONIC EQUIPMENT AND TRANSPORTATION EQUIPMENT” (priority 2008, published 2011)

Assay: Coin battery charge-discharge test (metal lithium negative electrode), Test Example 3
Settings: for Repetition capacity retention rate: charge-discharge capacity at the 20th cycle relative to the initial cycle; for Utilization rate: charge-discharge capacity with respect to the theoretical capacity; for Capacity Charge-discharge capacity: per gram of positive electrode active material, from initial discharge capacity, 0.2 C rate, 2.0 V to 4.0 V
Excerpt: A coin battery as shown in FIG. 5 was fabricated as one example of the power storage device of the present invention. FIG. 5 is a vertical cross-sectional view schematically showing a configuration of a coin battery 1 that is one example of the power storage device of the present invention.
A positive electrode includes a positive electrode current collector 12 made of an aluminum foil and a positive electrode active material layer 13 formed on the positive electrode current collector 12 and containing the phenanthrenequinone-containing compound (1a). The positive electrode was produced in the same manner as in the electrode production method in Test Example 2. This positive electrode was disposed such that the positive electrode current collector 12 was brought into contact with the inner surface of a case 11, and a separator 14 made of a porous polyethylene sheet was placed on the positive electrode.
Then, a non-aqueous electrolyte was injected into the case 11. As the non-aqueous electrolyte, an electrolyte prepared by dissolving lithium hexafluorophosphate in a concentration of 1.25 mol/L in a solvent mixture containing ethylene carbonate and ethylmethyl carbonate (weight ratio 1:3) was used.
Meanwhile, a negative electrode current collector 17 and a negative electrode active material layer 16 were press-fitted in this order onto the inner surface of a sealing plate 15 to provide a negative electrode. As the negative electrode active material layer 16, a 300 μm-thick metal lithium was used. As the negative electrode current collector 17, a 100 μm-thick stainless steel foil was used.
The case 11 in which the positive electrode was provided and the sealing plate 15 on which the negative electrode was provided were stacked such that the negative electrode active material layer 16 was in pressure contact with the separator 14, with a gasket 18 being placed around the circumference, and then sealed by crimping using a pressing machine. Thus, a coin battery of the present invention having a thickness of 1.6 mm and a diameter of 20 mm was fabricated.
The coin batteries of the present invention obtained in Examples 11 to 18 and the coin battery of Comparative Example 1 were subjected to a charge-discharge test. The charge-discharge test was conducted under the charge-discharge conditions of a current value of 0.2 C rate (5 hour rate) with respect to the theoretical capacity of each coin battery and a voltage range from 2.0 V to 4.0 V. The charge-discharge test was started with discharging, and an interval of 5 minutes was set between discharging and charging, and between charging and discharging. The charge-discharge test was repeated 20 times.
The charge-discharge capacity was calculated based on the initial discharge capacity of each of the coin batteries. The utilization rate (%) is the percentage of the charge-discharge capacity with respect to the theoretical capacity. The repetition capacity retention rate (%) is the percentage of the charge-discharge capacity at the 20th cycle relative to the charge-discharge capacity at the initial cycle.

Structure (SMILES): O=C1C(=O)c2cc(-c3ccc(-c4ccc5c(c4)C(=O)C(=O)c4ccccc4-5)cc3)ccc2-c2ccccc21 [Compound 1a, 1,4-(9,10-phenanthraquinone)-benzene]
- Repetition capacity retention rate: 75%
- Utilization rate: 80%
- Capacity Charge-discharge capacity: 175 mAh/g

Structure (SMILES): O=C1C(=O)c2cc(-c3ccc(-c4ccc5c(c4)C(=O)C(=O)c4ccccc4-5)s3)ccc2-c2ccccc21 [Compound 1i, 2,2′-(thiophene-2,5-diyl)diphenanthrene-9,10-dione]
- Repetition capacity retention rate: 79%
- Utilization rate: 83%
- Capacity Charge-discharge capacity: 179 mAh/g

Structure (SMILES): O=C1C(=O)c2ccccc2-c2ccccc21 [9,10-phenanthrenequinone, reference compound]
- Repetition capacity retention rate: 15%
- Utilization rate: 65%
- Capacity Charge-discharge capacity: 167 mAh/g
